From the supplement of paper PMC3334620 come the findings set out here.

In all, about 33,000 sequences were measured (“E-score (-0.5 to 0.5)”: median about -0.0059, highest 2% from about 0.26 on). This is one part of the list.

The assay addresses T1, Cin5 (UniProt P40917).
T1 sequence: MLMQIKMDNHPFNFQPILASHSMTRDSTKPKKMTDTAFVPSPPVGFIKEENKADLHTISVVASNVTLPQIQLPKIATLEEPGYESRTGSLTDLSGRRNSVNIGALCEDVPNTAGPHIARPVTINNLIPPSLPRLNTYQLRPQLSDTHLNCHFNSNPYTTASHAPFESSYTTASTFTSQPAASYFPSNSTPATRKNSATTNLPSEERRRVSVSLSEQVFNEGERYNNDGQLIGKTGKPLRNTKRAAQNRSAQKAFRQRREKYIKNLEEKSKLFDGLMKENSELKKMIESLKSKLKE
Description: PBM E-score (8-mer binding enrichment) (E-score (-0.5 to 0.5)); higher = stronger / more preferred TF binding. The settings on record: protein concentration: 100 nM; construct: GST-full length. Summed up: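 PURExpress in vitro transcription/translation supplied GST-tagged yeast transcription factors, either full-length or DNA-binding domain. Applied at about 100-200 nM to universal all-10-mer Agilent arrays double-stranded by primer extension, the bound protein was detected with fluorescent anti-GST. E-scores, modified Wilcoxon-Mann-Whitney statistics, were given by the Universal PBM Analysis Suite to ungapped eight-base words pooled with their reverse complements after masliner normalisation.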
Take GGTTGTAC: the “PBM E-score” value is -0.00691. Regarding CAAAAATA, the “PBM E-score” value is 0.277. For the sequence GTCGAAAC, the “PBM E-score” value was -0.0513. Regarding ATGAACGC, the “PBM E-score” value turned out to be 0.211. In the case of ACTGGCTC, the “PBM E-score” value was -0.186. The same measure for AATCAACG: 0.137; for CCATGAAC: 0.115; for AGAACGGC: -0.0327. The same measure for TATGGACA: 0.0541. Next, ACGTTCGC: -0.116. As to AGTTGCAC, the “PBM E-score” value was -0.131.

As to ATGTTAGC, the “PBM E-score” value amounted to 0.107.

For the sequence ACTCAATC, the “PBM E-score” value is 0.188. As to TAGTTAGA, the “PBM E-score” value came out at 0.0856. The same measure for CAGGTGCG: 0.016; for AGGTCCCC: -0.178. Next, AGTCGTGC: -0.3. With CAGGGCAG, the “PBM E-score” value is -0.105. With AGTATTCG, the “PBM E-score” value was 0.192. In the case of CTTATTAA, the “PBM E-score” value turned out to be 0.299.

In the case of CAAAGTTC, the “PBM E-score” value was -0.0124. The same measure for TACTAACA: 0.185. Consider CGGCGGCC, for which the “PBM E-score” value is -0.169. CATTGTGC: the “PBM E-score” value was found to be 0.0593. With GCCCATCC, the “PBM E-score” value is -0.135.

Take AATCGGCT: the “PBM E-score” value was determined as 0.014. The same measure for CCTGTGAG: -0.123; for GAACCGGC: -0.198; for CCTTATCA: 0.0994.

Regarding ACACCGCG, the “PBM E-score” value is -0.148. Take ACATTCTC: the “PBM E-score” value worked out at 0.0769. The same measure for ACCCAGAC: 0.039; for CGTGCGGA: -0.0296; for AATCCGTG: -0.0804.

In the case of CAGGAGAA, the “PBM E-score” value was 0.0225. The same measure for CACAGATG: 0.00139; for GGTACACA: -0.174; for CTAGGTTC: -0.066. The same measure for AGTAGACT: -0.0124. As for ATAGGTTA, the “PBM E-score” value is 0.17. As to GAATACTA, the “PBM E-score” value is 0.267.

For GACGTTCC, the “PBM E-score” value was determined as 0.0647. The same measure for TAGCCACA: -0.051. Turning to TCTTCCAA, the “PBM E-score” value was -0.0605. The same measure for GACGAGGC: -0.162; for AACACCTT: 0.0638. Next, AAACATCG: -0.156; CCTAAATC: 0.0853; CATAAAAA: 0.131. Next, GGATTCAA: -0.0607; CAGCATAA: 0.148; ACATTGCT: -0.0381. As to TGGGGAAA, the “PBM E-score” value came out at 0.187.

On to CGGTCCTA, for which the “PBM E-score” value was -0.232.

For the sequence AATTCTAA, the “PBM E-score” value stood at 0.143. The same measure for CTTGTTGA: -0.0242. Consider AGGCGAAG, for which the “PBM E-score” value was -0.195. Next, CCGCCCAA: -0.189; GCGTTCCA: -0.0663; ATTTGCAG: 0.0556. The same measure for CAGACGCC: -0.151. For the sequence ATGATTCG, the “PBM E-score” value came to 0.053. For the sequence GAGTTCTA, the “PBM E-score” value is -0.116. For TACAGGAA, the “PBM E-score” value was found to be 0.0717. In the case of CTACCTTA, the “PBM E-score” value came out at 0.0432.

Consider GTACGTCA, for which the “PBM E-score” value came to 0.172. As for AGCGTGAT, the “PBM E-score” value stood at 0.0865.

As to CCTTTCAC, the “PBM E-score” value was -0.0027. Regarding ATTGGCCG, the “PBM E-score” value came out at 0.02. The same measure for CAGAGGAG: -0.262; for CAACGCTC: -0.216.

CCTTGGCC: the “PBM E-score” value is -0.35.

As to GCATATTA, the “PBM E-score” value was found to be 0.246. Next, GCGTTTCC: 0.0818; AGTCGTAG: -0.16; GTTTTCTA: 0.132. The same measure for ATAATCCG: 0.235.

Turning to GCCCTGTA, the “PBM E-score” value is 0.0321.

Take AGTACTTC: the “PBM E-score” value stood at 0.199. For GAAAAAGA, the “PBM E-score” value worked out at 0.104.

Consider GCAAAAAA, for which the “PBM E-score” value was 0.157.

On to ATTCCGGA, for which the “PBM E-score” value was determined as 0.256. The same measure for GCGTTACA: 0.0658; for ATCTGTGG: -0.0485. With GCAGCAGA, the “PBM E-score” value is -0.106. Turning to GCGCGGGA, the “PBM E-score” value came out at 0.012.
